Measurements as given in the supplement of paper PMC11006884.
This is a selection; strong and weak results do not stand in their true shares.

By UniProt entry, the sequences of proteins in these tests, tags left out. Where a name states a change or a piece, a line headed by the entry shows the natural chain unless it says otherwise.
UniProt Q86VP6: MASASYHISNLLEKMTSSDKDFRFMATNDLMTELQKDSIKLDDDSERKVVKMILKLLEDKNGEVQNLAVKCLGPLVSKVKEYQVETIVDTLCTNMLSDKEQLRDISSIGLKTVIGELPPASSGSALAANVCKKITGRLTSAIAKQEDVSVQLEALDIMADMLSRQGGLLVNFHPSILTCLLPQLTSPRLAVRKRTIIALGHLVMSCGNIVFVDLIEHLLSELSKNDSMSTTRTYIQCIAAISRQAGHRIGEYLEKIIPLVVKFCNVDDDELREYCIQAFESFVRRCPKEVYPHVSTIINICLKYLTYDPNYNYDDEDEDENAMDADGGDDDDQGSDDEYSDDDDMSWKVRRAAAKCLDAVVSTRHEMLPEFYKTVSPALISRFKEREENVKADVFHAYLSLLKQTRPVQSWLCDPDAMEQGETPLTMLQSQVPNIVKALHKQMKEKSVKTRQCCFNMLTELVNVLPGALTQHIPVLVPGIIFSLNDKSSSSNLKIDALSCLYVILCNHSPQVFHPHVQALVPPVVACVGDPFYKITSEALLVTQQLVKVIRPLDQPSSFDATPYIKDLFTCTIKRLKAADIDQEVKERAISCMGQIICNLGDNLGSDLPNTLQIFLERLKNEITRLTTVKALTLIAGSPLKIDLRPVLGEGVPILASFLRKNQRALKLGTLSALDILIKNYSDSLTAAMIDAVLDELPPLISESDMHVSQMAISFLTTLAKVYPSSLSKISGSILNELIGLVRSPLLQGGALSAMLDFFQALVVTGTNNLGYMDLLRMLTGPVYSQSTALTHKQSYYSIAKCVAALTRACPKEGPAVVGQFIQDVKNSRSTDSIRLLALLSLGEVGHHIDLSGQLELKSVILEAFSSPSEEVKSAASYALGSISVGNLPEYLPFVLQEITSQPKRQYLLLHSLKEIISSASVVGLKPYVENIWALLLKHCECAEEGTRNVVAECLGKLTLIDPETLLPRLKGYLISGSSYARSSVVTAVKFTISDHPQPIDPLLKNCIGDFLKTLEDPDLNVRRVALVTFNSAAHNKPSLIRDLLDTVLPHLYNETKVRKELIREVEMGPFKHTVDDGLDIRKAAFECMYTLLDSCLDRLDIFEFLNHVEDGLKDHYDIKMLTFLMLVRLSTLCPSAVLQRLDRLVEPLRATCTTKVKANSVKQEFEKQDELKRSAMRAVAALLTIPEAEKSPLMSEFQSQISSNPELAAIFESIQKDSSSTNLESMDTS
UniProt Q86SX6: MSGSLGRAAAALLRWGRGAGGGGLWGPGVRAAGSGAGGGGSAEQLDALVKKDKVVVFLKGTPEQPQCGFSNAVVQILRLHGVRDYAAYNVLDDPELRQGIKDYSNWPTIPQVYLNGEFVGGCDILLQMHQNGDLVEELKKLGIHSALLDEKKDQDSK
UniProt Q86W56: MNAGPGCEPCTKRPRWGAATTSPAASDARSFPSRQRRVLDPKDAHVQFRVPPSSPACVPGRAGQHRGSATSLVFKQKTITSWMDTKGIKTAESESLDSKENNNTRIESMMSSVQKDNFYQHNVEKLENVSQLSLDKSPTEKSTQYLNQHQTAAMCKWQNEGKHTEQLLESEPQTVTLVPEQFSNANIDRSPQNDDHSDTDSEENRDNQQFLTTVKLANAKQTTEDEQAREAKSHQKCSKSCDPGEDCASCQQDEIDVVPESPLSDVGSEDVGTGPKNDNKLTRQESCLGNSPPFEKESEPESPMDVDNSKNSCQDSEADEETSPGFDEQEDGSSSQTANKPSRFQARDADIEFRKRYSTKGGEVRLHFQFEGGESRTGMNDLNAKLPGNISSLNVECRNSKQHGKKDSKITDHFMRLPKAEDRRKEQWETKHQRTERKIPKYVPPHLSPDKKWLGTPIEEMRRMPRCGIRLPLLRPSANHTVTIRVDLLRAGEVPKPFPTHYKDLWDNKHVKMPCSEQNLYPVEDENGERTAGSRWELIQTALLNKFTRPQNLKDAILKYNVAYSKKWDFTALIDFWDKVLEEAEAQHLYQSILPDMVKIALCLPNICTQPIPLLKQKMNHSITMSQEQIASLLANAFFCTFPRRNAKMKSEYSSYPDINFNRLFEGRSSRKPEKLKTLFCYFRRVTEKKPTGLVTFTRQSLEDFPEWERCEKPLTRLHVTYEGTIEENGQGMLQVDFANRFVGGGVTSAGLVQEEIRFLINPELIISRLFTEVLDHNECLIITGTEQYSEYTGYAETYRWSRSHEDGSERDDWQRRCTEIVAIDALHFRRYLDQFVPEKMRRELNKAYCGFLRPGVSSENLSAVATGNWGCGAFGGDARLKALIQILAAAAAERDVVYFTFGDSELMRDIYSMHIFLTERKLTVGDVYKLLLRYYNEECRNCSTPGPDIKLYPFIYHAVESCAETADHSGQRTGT
UniProt Q86Y56: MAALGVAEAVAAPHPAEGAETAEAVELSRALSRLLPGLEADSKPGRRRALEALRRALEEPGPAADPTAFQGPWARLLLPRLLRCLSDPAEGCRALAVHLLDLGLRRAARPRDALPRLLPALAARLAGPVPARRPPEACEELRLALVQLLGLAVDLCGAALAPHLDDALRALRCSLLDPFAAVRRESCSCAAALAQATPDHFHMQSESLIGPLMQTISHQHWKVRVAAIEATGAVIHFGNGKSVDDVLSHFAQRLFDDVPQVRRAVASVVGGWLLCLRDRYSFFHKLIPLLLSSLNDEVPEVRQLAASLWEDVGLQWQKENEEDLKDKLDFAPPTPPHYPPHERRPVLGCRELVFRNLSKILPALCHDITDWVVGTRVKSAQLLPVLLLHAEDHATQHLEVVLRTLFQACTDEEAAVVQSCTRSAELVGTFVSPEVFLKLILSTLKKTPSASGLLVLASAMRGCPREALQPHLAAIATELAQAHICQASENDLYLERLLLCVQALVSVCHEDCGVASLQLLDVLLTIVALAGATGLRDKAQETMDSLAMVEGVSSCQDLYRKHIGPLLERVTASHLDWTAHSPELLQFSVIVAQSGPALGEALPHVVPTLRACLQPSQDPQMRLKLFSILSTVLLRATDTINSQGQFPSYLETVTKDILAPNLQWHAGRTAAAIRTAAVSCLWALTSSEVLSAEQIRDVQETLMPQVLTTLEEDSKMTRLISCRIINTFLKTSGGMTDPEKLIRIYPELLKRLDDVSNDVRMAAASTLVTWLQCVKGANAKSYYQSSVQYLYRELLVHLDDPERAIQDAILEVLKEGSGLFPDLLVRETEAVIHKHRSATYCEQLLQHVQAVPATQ
UniProt Q7Z695: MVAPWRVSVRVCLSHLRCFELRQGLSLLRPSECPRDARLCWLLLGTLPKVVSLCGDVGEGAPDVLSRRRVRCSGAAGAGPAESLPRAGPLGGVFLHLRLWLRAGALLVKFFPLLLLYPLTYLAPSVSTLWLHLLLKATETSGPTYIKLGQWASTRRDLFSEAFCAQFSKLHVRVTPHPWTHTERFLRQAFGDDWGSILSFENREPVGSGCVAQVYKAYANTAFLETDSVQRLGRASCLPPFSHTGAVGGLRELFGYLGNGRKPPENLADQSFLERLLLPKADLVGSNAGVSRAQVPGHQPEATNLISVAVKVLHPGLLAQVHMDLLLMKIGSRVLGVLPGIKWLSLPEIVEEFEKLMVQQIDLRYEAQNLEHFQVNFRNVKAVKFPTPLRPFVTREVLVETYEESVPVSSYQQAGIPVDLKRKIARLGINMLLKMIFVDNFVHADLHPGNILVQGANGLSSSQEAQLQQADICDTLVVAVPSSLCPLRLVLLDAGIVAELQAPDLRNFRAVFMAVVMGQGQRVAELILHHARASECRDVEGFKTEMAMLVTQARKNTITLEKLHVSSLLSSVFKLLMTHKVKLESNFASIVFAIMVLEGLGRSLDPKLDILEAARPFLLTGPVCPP
UniProt Q8IV48: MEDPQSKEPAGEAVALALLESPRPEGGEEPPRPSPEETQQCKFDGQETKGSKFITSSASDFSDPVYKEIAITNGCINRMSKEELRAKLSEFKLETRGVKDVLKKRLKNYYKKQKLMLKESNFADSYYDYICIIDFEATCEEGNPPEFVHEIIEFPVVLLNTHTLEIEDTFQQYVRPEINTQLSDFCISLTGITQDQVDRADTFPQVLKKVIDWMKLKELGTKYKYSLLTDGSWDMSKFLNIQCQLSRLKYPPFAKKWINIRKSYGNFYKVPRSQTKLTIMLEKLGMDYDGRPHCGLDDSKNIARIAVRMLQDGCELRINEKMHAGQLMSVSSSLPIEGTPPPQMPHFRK
UniProt Q8IY92: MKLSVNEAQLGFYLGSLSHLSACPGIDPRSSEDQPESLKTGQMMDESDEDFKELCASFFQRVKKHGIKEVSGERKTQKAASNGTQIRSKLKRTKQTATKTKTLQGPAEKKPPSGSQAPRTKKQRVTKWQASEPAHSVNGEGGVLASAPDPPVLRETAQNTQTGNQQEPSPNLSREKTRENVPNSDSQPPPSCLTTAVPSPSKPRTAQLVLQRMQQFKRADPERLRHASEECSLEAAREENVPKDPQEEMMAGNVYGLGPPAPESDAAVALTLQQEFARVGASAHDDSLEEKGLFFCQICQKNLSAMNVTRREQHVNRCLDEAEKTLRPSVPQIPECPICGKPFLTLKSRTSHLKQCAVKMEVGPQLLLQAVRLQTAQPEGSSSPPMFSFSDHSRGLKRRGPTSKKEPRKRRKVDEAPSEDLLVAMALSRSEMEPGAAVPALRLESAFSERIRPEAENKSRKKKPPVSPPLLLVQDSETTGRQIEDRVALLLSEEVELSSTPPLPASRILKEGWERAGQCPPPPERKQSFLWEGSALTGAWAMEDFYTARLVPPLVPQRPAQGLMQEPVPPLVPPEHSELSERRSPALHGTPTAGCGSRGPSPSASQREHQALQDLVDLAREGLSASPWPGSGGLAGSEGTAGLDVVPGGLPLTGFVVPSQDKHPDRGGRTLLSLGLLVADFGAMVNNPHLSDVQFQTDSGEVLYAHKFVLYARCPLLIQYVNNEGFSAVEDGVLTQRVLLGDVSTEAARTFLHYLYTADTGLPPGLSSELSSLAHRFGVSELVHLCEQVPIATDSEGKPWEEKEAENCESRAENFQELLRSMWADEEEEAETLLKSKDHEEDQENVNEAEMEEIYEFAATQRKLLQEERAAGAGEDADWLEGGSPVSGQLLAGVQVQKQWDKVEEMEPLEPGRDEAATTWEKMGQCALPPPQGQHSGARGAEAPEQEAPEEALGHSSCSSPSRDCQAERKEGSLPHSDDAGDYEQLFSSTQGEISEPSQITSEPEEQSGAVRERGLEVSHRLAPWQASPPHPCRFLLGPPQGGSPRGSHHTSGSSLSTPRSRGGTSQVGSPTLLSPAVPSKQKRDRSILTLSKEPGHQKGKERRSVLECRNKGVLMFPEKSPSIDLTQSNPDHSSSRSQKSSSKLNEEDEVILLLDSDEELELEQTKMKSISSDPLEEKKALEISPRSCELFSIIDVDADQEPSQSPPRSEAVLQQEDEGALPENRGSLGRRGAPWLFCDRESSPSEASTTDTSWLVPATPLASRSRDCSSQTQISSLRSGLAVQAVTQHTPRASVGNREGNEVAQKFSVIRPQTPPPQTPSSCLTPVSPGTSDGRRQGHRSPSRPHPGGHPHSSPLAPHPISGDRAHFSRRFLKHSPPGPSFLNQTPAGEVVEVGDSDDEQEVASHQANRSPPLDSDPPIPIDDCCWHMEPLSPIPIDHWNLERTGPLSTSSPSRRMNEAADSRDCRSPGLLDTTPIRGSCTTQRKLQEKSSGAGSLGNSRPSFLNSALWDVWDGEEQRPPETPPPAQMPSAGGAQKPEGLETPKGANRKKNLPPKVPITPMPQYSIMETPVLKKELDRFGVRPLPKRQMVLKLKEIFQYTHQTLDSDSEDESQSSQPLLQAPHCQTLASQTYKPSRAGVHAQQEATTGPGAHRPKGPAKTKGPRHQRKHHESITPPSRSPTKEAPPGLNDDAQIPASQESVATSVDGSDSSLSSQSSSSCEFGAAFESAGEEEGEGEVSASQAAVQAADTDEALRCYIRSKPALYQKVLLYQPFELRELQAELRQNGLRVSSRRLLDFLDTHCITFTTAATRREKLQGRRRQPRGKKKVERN
UniProt Q7Z434: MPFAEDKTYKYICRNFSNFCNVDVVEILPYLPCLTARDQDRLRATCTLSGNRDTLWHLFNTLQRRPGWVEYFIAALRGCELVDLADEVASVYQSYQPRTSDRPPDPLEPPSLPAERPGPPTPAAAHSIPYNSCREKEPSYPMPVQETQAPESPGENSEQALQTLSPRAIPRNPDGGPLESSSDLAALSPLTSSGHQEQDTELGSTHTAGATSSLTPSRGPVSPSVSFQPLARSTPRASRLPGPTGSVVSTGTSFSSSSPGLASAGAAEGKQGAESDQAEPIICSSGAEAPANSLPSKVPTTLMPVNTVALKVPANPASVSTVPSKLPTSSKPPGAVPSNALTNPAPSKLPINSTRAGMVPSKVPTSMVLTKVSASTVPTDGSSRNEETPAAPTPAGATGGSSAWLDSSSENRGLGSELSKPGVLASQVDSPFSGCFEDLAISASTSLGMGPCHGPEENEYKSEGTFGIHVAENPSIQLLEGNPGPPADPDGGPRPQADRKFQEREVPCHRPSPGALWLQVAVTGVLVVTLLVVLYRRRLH

Compound: COC(=O)C#Cc1ccccc1 [methyl 3-phenylpropiolate]
Assay: log2 ratio of iodoacetamide-alkyne labeling of the cysteine site, DMSO over compound (competition); higher = stronger covalent engagement of the cysteine by the compound, active = 1 or more
Settings: 500 µM; treatment time 1 h; system: HEK293T cell lysate
Method in brief: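 HEK293T lysate at 2 mg/mL was treated with vehicle or electrophile (500 µM) for 1 h at ambient temperature, then labelled with iodoacetamide alkyne (1 h), clicked to sCIP-TMT reagents, pooled, digested with trypsin overnight at 37 °C, enriched on streptavidin and eluted with acid. Peptides were analysed by Orbitrap Eclipse LC-MS/MS with FAIMS and quantified in FragPipe, using duplicate channels and three replicates, with cysteines quantified in only one replicate excluded. The log2 competition ratio for each cysteine is the mean control-channel reporter intensity divided by the mean compound-channel reporter intensity.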

Row | Target | log2 ratio of iodoacetamide-alkyne labeling
1 | DIS3L2 C146 (UniProt Q8IYB7) | inactive: 0.38
2 | POGZ C1267 (UniProt Q7Z3K3) | inactive: 0.673
3 | DIS3L2 C312 (UniProt Q8IYB7) | inactive: 0.226
4 | CCDC25 C83 (UniProt Q86WR0) | inactive: 0.0967
5 | ZC3HC1 C429 (UniProt Q86WB0) | inactive: 0.297
6 | CYFIP1 C1088 (UniProt Q7L576) | inactive: -0.14
7 | UniProt Q7L0Y3_C123 | inactive: -0.0842
8 | ASRGL1 C115 (UniProt Q7L266) | inactive: 0.532
9 | CAND1 C275 (UniProt Q86VP6) | inactive: -0.226
10 | GLRX5 C67 (UniProt Q86SX6) | inactive: 0.0881
11 | HUWE1 C3361 (UniProt Q7Z6Z7) | inactive: 0.797
12 | CAND1 C356 (UniProt Q86VP6) | inactive: 0.216
13 | CAND1 C413 (UniProt Q86VP6) | inactive: 0.304
14 | PHF6 C242 (UniProt Q8IWS0) | inactive: 0.181
15 | TRMT2A C463 (UniProt Q8IZ69) | active: 1.1
16 | RBBP6 C44 (UniProt Q7Z6E9) | inactive: 0.669
17 | UniProt Q7Z7A3_C287 | inactive: -0.267
18 | PARG C397 (UniProt Q86W56) | inactive: 0.64
19 | UniProt Q86Y56_C365 | inactive: 0.103

Row | Target | log2 ratio of iodoacetamide-alkyne labeling
20 | DHX29 C1025 (UniProt Q7Z478) | inactive: 0.0649
21 | PARG C515 (UniProt Q86W56) | active: 1.16
22 | RPAIN C175 (UniProt Q86UA6) | inactive: -0.0658
23 | UniProt Q7Z695_C624 | inactive: 0.296
24 | ERI1 C75 (UniProt Q8IV48) | inactive: 0.356
25 | SLX4 C1269 (UniProt Q8IY92) | inactive: 0.753
26 | GATAD2A C420 (UniProt Q86YP4) | inactive: 0.297
27 | METTL3 C500 (UniProt Q86U44) | inactive: 0.475
28 | EMSY C1211 (UniProt Q7Z589) | inactive: 0.802
29 | PHF6 C45 (UniProt Q8IWS0) | inactive: 0.16
30 | UniProt Q7Z434_C133 | inactive: 0.45
31 | TRMT2A C111 (UniProt Q8IZ69) | inactive: 0.0928
32 | PARG C963 (UniProt Q86W56) | inactive: 0.0715
33 | SND1 C96 (UniProt Q7KZF4) | inactive: 0.115
34 | NCAPG2 C776 (UniProt Q86XI2) | inactive: 0.824
35 | KIF21A C299 (UniProt Q7Z4S6) | inactive: 0.303
36 | USP48 C986 (UniProt Q86UV5) | inactive: 0.0665
37 | ISCA2 C146 (UniProt Q86U28) | active: 1.59

Reformatted with tabs: entries from further up.
Row	Target	log2 ratio of iodoacetamide-alkyne labeling
20	DHX29 C1025 (UniProt Q7Z478)	inactive: 0.0649
21	PARG C515 (UniProt Q86W56)	active: 1.16
22	RPAIN C175 (UniProt Q86UA6)	inactive: -0.0658
23	UniProt Q7Z695_C624	inactive: 0.296
24	ERI1 C75 (UniProt Q8IV48)	inactive: 0.356
25	SLX4 C1269 (UniProt Q8IY92)	inactive: 0.753
26	GATAD2A C420 (UniProt Q86YP4)	inactive: 0.297
27	METTL3 C500 (UniProt Q86U44)	inactive: 0.475
28	EMSY C1211 (UniProt Q7Z589)	inactive: 0.802
33	SND1 C96 (UniProt Q7KZF4)	inactive: 0.115
37	ISCA2 C146 (UniProt Q86U28)	active: 1.59
